# In patent US20040013721A1, “Controlled and sustained release properties of polyelectrolyte multilayer capsules” (priority 2000, published 2004):
# For at least one compound, name, drawing or mass did not settle the structure.
# How the values were obtained:
# Type in all cases: physicochemical
# [1] = Fluorescein core dissolution and release through PSS/PAH multilayer shells, followed by fluorescence spectroscopy; details: permeability times shell wall thickness, assuming single layer thickness of 2 nm
# [2] = Saturated fluorescein solution inside capsules; details: capsule interior while solid core is present
# [3] = Permeability for probe polymers and dyes, and its temperature dependence, by confocal imaging; details: independent of their charge
# Experimental: Monodisperse spheres (d=5.94 μm) of a weakly polymerized melamine-formaldehyde resin were used as templates (Microparticle GmbH). The particles were covered by alternating adsorption of sodium polystyrene sulfonate PSS (MW 70 000 g mol^−1, Aldrich) and polyallylamine hydrochloride PAH (MW 70 000 g mol^−1, Aldrich) from an aqueous solution of 10^−2 M PSS in 0.1 M sodium chloride. After 8 layers the core was dissolved in 0.1 M hydrochloric acid. The decomposition products were removed by washing with acid and an aqueous solution of 10^−2 M NaCl. Hollow polyelectrolyte capsules remained. […]
# For the study of the permeability, fluorescence labeled polymers were used. […] The MW of the polymer was determined being 120 000 g/mol by gel permeation chromatography. […]
# Laser scanning microscopy was performed for the determination of the loading grade of the capsules. […] The amounts of polymer/monomer in the interior were determined by integration of the fluorescence intensity inside the capsules. The exact concentration was taken from calibration curves, determined for each fluorescent probe separately. […]
# The permeability of the capsules was studied for positively (PAH) and negatively charged (PSS), zwitterionic (albumine) and noncharged (dextran) fluorescent polymers (dextran). […] Then, the fluorescence intensity in the center of the capsules was measured by confocal imaging. […]
compound,measurement,setting,value
O=C1OC2(c3ccc(O)cc3Oc3cc(O)ccc32)c2ccccc21 [fluorescein],diffusion coefficient (D),[1],~10^−15 m^2/s
same,"saturated fluorescein solution, c^s",[2],25 mg/mL
same,penetration of the capsule wall by small dye molecules,[3],can penetrate the capsule wall
